Measurements: PubChem BioAssay AID493014 (National Center for Advancing Translational Sciences (NCATS), 2011)
The other results are listed elsewhere or left out. Further columns of the screen follow, without active or inactive calls. Most of these compounds were active or inconclusive in the main read-out, so they are no random draw. Potencies come from curve fits of mixed quality, noted in brackets.

Assay: qHTS Assay to Find Inhibitors of Chronic Active B-Cell Receptor Signaling
Details: ABC-DLBCL IkBa-CBG/CBR reporter, luminescence ratio (green luciferase fused to IkBa over red control in TMD8 lymphoma cells), 4 h
Method in brief: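 Cell line TMD8 (human ABC DLBCL), stably expressing tet-inducible CBG68-IkBa fusion and CBR; IMDM/0.5% FBS; cpd up to 46 uM; dox induction, 4 h, 37C/5% CO2; dual luminescence; green/red ratio; MG132 control.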

[1] = measured here: CBR red luminescence, cell number
[2] = measured here: IkBa-CBG green luminescence

Structure (SMILES) | AC50 [1] | AC50 [2]
Cc1ccc(C(=O)Oc2cc(C)n(C)c(=O)c2)cc1 | 20 µM [falling, single point] | 
Cc1c(C)n2c(SCC(=O)Nc3cccc4ccccc34)nnc2[nH]c1=O | 4.61 µM [falling, partial curve] | 
COc1ccc(CNCCC(c2ccc(OC(C)C)cc2)C(C)C)cc1OC (stereo unspecified) | 10 µM [falling, partial curve, poor fit] | 
c1ccc(N2CCN(c3nc4cc5c(cc4s3)OCCO5)CC2)cc1 | 25.9 µM [rising, single point] | 
CCOc1ccc(NC(=O)C2CC(=O)N(c3cc(C)cc(C)c3)C2)cc1 (stereo unspecified) | 29.1 µM [rising, single point] | 
CCOC(=O)C1=C(C)N(C)C(C)=C(C(=O)OCC)C1c1ccc(Cl)cc1 | 29.1 µM [falling, single point] | 
Cc1ccc(/C=N/n2c(-c3cccnc3)n[nH]c2=S)s1 | 16.4 µM [falling, single point] | 
CCOC(=O)c1c(C)[nH]c(C)c1C(=O)CSc1nnc(-c2ccco2)n1Cc1ccccc1 | 32.6 µM [falling, single point] | 
COc1ccc([C@H]2CC(=O)C=C(c3ccc(OC)cc3OC)C2)cc1 | 10.3 µM [rising, partial curve] | 14.6 µM [falling, partial curve]
CCC(C(=O)OCC(=O)Nc1c(Cl)cccc1Cl)c1ccccc1 (stereo unspecified) | 2.59 µM [rising, partial curve] | 
Cc1ccc(C(CNC(=O)Nc2ccc(Cl)cc2)N2CCN(C)CC2)cc1 (stereo unspecified) | 0.158 µM [rising, full curve, poor fit] | 
CCCOc1ccc(NCC(=O)Nc2ccc(C)cc2C)cc1 | 4.11 µM [falling, partial curve, poor fit] | 
CCOc1ccc(C(=O)Nc2cc(C)on2)cc1OCC | 29.1 µM [rising, single point] | 
CCCSc1nc2c(c(=O)[nH]c(=O)n2C)n1Cc1ccc(C)cc1 | 35.5 µM [rising, single point] | 
CCSc1nccc(-c2nn(-c3ccc(C)cc3)ccc2=O)n1 | 29.1 µM [rising, single point] | 
N#C/C(=C(/O)c1ccc([N+](=O)[O-])cc1)c1nc2ccccc2[nH]1 | 1.41 µM [falling, full curve, poor fit] | 
CCOc1ccc2nc(N3C(=O)/C(=C/c4ccccc4)NC3=S)sc2c1 | 8.2 µM [rising, partial curve, poor fit] | 16.4 µM [falling, partial curve, poor fit]
Clc1ccc2scc(CN3CCCCC3)c2c1 | 0.82 µM [rising, full curve] | 
Cc1cccc(OCC(=O)N(Cc2ccc(F)cc2)C2CCS(=O)(=O)C2)c1C (stereo unspecified) | 11.2 µM [falling, partial curve] | 
Nc1nc(Nc2cccc(C(F)(F)F)c2)nc(C(F)(F)F)n1 | 2.51 µM [rising, full curve] | 
Cc1cc(=O)oc2cc(OCC(=O)N3CCN(c4ccccc4)CC3)ccc12 | 29.1 µM [rising, single point] | 

Some of these compounds in order of SMILES length, rising:
Structure (SMILES) | AC50 [1] | AC50 [2]
Clc1ccc2scc(CN3CCCCC3)c2c1 | 0.82 µM [rising, full curve] | 
CCOc1ccc(C(=O)Nc2cc(C)on2)cc1OCC | 29.1 µM [rising, single point] | 
CCCOc1ccc(NCC(=O)Nc2ccc(C)cc2C)cc1 | 4.11 µM [falling, partial curve, poor fit] | 
Cc1ccc(C(=O)Oc2cc(C)n(C)c(=O)c2)cc1 | 20 µM [falling, single point] | 
CCSc1nccc(-c2nn(-c3ccc(C)cc3)ccc2=O)n1 | 29.1 µM [rising, single point] | 
CCC(C(=O)OCC(=O)Nc1c(Cl)cccc1Cl)c1ccccc1 (stereo unspecified) | 2.59 µM [rising, partial curve] | 
c1ccc(N2CCN(c3nc4cc5c(cc4s3)OCCO5)CC2)cc1 | 25.9 µM [rising, single point] | 
COc1ccc(CNCCC(c2ccc(OC(C)C)cc2)C(C)C)cc1OC (stereo unspecified) | 10 µM [falling, partial curve, poor fit] | 
CCCSc1nc2c(c(=O)[nH]c(=O)n2C)n1Cc1ccc(C)cc1 | 35.5 µM [rising, single point] | 
Cc1ccc(C(CNC(=O)Nc2ccc(Cl)cc2)N2CCN(C)CC2)cc1 (stereo unspecified) | 0.158 µM [rising, full curve, poor fit] | 
Cc1c(C)n2c(SCC(=O)Nc3cccc4ccccc34)nnc2[nH]c1=O | 4.61 µM [falling, partial curve] | 
Cc1cccc(OCC(=O)N(Cc2ccc(F)cc2)C2CCS(=O)(=O)C2)c1C (stereo unspecified) | 11.2 µM [falling, partial curve] | 
N#C/C(=C(/O)c1ccc([N+](=O)[O-])cc1)c1nc2ccccc2[nH]1 | 1.41 µM [falling, full curve, poor fit] | 
CCOC(=O)c1c(C)[nH]c(C)c1C(=O)CSc1nnc(-c2ccco2)n1Cc1ccccc1 | 32.6 µM [falling, single point] | 

Following part

Structure (SMILES) | AC50 [1] | AC50 [2]
CC(=O)Nc1ccc(C(=O)Nc2ccc3c(c2)N(C2CCCC2)C(=O)c2ccccc2S3)cc1 |  | 12.6 µM [rising, partial curve, poor fit]
COC(=O)c1sccc1NC(=O)CSc1cccc(Cl)c1Cl | 6.31 µM [falling, partial curve, poor fit] | 
CC(/C=N/Nc1nc(C)cc(C)n1)=C\c1ccc(C(C)C)cc1 | 2.06 µM [rising, partial curve, poor fit] | 
Cc1ccccc1Nc1nc(N)nc(COC(=O)CCS(=O)(=O)c2ccccc2)n1 | 15.8 µM [falling, single point] | 
Cc1ccc(OCC(=O)OCC(=O)c2c(N)n(C)c(=O)n(C)c2=O)cc1C | 0.58 µM [falling, partial curve, poor fit] | 
COc1cccc(NC(=O)CSc2nc3c(sc4ccccc43)c(=O)n2CCCN2CCCC2)c1 | 22.4 µM [falling, single point] | 
O=C(COC(=O)c1cncc(Br)c1)Nc1nc(-c2ccc(F)cc2)cs1 | 1.12 µM [falling, full curve] | 
Cc1ccc2nc(NC(=O)c3ccc4c(c3)OCO4)sc2c1 | 1.41 µM [falling, full curve] | 
CCCNc1c(NS(=O)(=O)c2cccs2)c(=O)oc2ccccc12 | 17.8 µM [falling, partial curve, poor fit] | 
COc1cc(Cl)ccc1OCc1cc(C(=O)NC(C)Cc2cccnc2)no1 (stereo unspecified) | 35.5 µM [falling, single point] | 
COc1ccc(C(=O)CN2CCN(c3ccc(F)cc3)CC2)cc1OC | 11.2 µM [falling, single point] | 
COc1cc(/C=N\NC(=O)c2ccc(-c3ccccc3)cc2)cc(OC)c1OC(C)=O | 12.6 µM [falling, partial curve, poor fit] | 
CCOC(=O)Cc1csc(NC(=O)Nc2ccccc2)n1 | 6.51 µM [falling, partial curve, poor fit] | 
Cc1nn(Cc2ccccc2)c(N)c1C#N | 11.2 µM [falling, partial curve, poor fit] | 
CN(C)CCNC(=O)/C(=C/c1ccc(-c2cccc([N+](=O)[O-])c2)o1)NC(=O)c1ccccc1 | 29.1 µM [falling, single point] | 
NNc1nc2ccc(Cl)cc2s1 | 1.3 µM [falling, full curve] | 
O=c1cc2c(nn1Cc1ccc(F)cc1)-c1ccccc1CC2 | 39.8 µM [falling, partial curve, poor fit] | 
C/C(Cn1nnc([N+](=O)[O-])n1)=N\NC(=O)c1ccc(Cl)c(Cl)c1 | 12.6 µM [falling, partial curve, poor fit] | 
O=C(c1cc2ncc(Br)cn2n1)N1CCN(C(=O)c2ccco2)CC1 | 9.2 µM [rising, partial curve, poor fit] | 
CCCCCc1nnc(NS(C)(=O)=O)s1 | 1.84 µM [rising, partial curve] | 
O=c1c2cc(N3CCOCC3)ccc2[nH]c(=S)n1Cc1ccccn1 | 1.84 µM [rising, partial curve, poor fit] | 

Structure (SMILES) | AC50 [1] | AC50 [2]
O=C(COc1ccc2c(c1)OCO2)Nc1cccc(F)c1 | 17.8 µM [falling, single point] | 
O=C1O/C(=C/c2ccccc2)c2ccccc21 | 3.26 µM [rising, full curve, poor fit] | 23.1 µM [falling, partial curve, poor fit]
O=C(COC(=O)c1ccncc1)Nc1cc(S(=O)(=O)N2CCOCC2)ccc1Cl | 0.731 µM [rising, full curve, poor fit] | 
O=C(Cc1n[nH]c(=O)c2ccccc12)Nc1cccc(S(=O)(=O)N2CCCC2)c1 | 6.31 µM [falling, partial curve, poor fit] | 
Cc1cc(C)cc(NC(=O)c2cc(S(=O)(=O)N3CCCC3)ccc2F)c1 | 11.2 µM [falling, partial curve, poor fit] | 
O=C(CC1SC(=O)N(Cc2cccc3ccccc23)C1=O)Nc1nccs1 (stereo unspecified) | 10 µM [falling, partial curve, poor fit] | 
Cc1cc(CSc2ccccc2)ccc1NC(=O)COc1ccccc1 | 11.2 µM [rising, partial curve] | 
CCOc1ncccc1C(=O)OCC(=O)c1cccc(Br)c1 | 35.5 µM [rising, single point] | 
CCCCNc1ccc(C(CC(N)=O)NC(=O)c2ccccc2)cc1[N+](=O)[O-] (stereo unspecified) | 0.794 µM [rising, partial curve, poor fit] | 
COc1cccc(-c2nnc3n2N=C(C(C)(C)C)CS3)c1 | 11.2 µM [falling, partial curve, poor fit] | 
Cc1nc(-c2cccc(S(=O)(=O)N3CCC(C(=O)NCc4ccccc4Cl)CC3)c2)no1 | 35.5 µM [falling, single point] | 
COc1cc(CNc2ccc(N3CCCC3)cc2)cc(Cl)c1OC | 7.94 µM [falling, partial curve, poor fit] | 
CCC/C=N/NC(=O)c1cccc(Br)c1 | 10 µM [falling, partial curve] | 
CCOc1ccc(OCC)c(NC(=O)CSc2nnc(C3CC3)n2CC)c1 | 35.5 µM [falling, single point] | 
Cc1ccc(-c2nn(-c3cc(Cl)ccc3[N+](=O)[O-])c(=O)c3ccccc23)cc1 | 15.8 µM [rising, partial curve, poor fit] | 
CCc1ccc(-c2nnn(CCC(=O)OC)n2)cc1 | 2.82 µM [falling, full curve] | 
O=C(Nc1cnn(Cc2ccc(F)cc2)c1)c1cnccn1 | 5.17 µM [rising, partial curve] | 
NS(=O)(=O)c1ccccc1NC(=O)c1c(O)c2ccccc2[nH]c1=O | 7.94 µM [falling, partial curve, poor fit] | 
O=C(NN1C(=O)C2C3C=CC(O3)C2C1=O)c1cccc(O)c1 (stereo unspecified) | 5.8 µM [falling, partial curve, poor fit] | 
COc1ccc(Br)cc1/C=C/C(=O)c1ccc(NC(C)=O)cc1 | 1.3 µM [falling, full curve, poor fit] | 
COc1ccc2nc(SCC(=O)Nc3ccccc3OC)[nH]c2c1 | 3.16 µM [rising, full curve] | 
